Four molecules from publication PMC5958099 can be followed below.

Sequences of proteins named here, by UniProt entry; tags and fusion partners are left off.
UniProt Q99459: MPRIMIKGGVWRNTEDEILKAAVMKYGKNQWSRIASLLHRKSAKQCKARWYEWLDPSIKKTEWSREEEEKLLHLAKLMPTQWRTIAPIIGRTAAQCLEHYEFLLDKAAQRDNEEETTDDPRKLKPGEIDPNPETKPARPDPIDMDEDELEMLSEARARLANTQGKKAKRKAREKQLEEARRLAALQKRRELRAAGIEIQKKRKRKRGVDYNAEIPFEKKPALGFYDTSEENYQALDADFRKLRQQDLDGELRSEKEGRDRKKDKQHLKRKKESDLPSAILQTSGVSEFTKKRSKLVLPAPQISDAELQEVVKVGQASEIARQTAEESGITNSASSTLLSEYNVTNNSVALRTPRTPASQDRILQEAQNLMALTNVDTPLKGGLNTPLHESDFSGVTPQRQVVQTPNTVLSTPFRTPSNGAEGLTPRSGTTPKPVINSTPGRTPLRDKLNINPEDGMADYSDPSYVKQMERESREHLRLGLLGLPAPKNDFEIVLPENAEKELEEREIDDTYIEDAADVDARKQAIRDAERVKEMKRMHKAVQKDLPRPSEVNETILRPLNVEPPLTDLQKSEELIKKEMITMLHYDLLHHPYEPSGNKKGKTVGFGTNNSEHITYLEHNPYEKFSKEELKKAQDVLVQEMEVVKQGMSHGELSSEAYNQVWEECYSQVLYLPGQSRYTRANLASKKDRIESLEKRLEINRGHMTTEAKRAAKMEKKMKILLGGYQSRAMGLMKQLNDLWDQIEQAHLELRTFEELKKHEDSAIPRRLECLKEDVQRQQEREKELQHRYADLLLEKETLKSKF
UniProt O75643: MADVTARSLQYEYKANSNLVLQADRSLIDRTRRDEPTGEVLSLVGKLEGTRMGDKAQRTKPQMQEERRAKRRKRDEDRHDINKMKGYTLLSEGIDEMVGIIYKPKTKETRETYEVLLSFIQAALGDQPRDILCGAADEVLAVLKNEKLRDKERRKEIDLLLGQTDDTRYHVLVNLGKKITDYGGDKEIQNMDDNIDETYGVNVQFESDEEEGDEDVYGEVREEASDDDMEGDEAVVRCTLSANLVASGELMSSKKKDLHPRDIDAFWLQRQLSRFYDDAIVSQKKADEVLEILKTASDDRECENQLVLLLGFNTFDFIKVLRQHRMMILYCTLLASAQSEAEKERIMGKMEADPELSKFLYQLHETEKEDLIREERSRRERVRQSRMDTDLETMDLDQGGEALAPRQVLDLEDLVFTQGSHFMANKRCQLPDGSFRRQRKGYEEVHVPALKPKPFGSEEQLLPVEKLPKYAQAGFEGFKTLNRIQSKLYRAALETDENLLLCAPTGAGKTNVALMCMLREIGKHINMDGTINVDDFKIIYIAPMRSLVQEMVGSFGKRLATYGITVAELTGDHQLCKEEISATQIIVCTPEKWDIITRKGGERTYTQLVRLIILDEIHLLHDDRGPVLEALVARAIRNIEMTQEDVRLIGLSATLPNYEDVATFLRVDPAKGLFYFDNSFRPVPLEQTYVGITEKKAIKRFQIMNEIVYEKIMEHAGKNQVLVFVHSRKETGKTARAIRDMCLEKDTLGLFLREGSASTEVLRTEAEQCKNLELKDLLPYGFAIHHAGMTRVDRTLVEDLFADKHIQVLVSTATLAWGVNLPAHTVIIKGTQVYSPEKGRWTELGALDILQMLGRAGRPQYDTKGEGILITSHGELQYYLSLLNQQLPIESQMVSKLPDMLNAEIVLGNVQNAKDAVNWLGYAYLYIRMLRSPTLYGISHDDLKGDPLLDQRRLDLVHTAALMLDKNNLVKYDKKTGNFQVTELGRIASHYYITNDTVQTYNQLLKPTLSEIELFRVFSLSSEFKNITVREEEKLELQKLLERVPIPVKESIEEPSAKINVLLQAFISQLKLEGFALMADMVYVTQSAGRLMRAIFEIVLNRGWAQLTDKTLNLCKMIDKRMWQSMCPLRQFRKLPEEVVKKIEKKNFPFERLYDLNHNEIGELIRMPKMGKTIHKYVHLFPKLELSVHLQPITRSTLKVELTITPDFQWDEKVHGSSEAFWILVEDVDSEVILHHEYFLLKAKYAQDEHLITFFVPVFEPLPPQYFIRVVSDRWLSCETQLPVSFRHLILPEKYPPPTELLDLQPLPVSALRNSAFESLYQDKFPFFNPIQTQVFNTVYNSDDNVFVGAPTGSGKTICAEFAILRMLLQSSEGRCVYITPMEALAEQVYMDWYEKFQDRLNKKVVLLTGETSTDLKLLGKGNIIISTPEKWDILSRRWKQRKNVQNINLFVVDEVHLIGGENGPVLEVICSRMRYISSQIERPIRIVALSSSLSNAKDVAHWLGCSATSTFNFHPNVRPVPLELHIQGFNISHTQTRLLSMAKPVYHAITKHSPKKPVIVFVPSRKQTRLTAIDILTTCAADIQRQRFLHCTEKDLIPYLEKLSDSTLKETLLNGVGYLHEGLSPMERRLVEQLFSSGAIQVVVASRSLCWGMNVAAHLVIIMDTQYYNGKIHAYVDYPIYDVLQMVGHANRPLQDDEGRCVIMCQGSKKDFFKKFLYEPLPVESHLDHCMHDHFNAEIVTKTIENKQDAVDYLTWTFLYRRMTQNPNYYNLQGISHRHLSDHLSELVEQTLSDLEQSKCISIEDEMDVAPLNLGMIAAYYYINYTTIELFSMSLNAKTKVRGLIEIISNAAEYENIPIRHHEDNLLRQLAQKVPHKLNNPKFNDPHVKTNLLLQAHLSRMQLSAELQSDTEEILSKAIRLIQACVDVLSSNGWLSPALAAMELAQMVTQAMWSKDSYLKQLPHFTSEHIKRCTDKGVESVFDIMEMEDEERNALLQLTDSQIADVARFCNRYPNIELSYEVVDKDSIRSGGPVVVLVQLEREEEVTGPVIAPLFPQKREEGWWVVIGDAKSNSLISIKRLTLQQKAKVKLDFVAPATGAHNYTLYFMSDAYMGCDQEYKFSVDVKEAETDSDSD

No constants are given. Whether binding was seen depends on the method and setting. Binding seen in cells or lysates may run through a third protein. A yes stands for co-enrichment or nearness to the bait. Other partners may have been found. Where a sequence is shown, tags or fusion partners need not be part of it.

T1: GFP-DNAJC17 fusion protein (mouse) (UniProt Q91WT4)
T1 sequence: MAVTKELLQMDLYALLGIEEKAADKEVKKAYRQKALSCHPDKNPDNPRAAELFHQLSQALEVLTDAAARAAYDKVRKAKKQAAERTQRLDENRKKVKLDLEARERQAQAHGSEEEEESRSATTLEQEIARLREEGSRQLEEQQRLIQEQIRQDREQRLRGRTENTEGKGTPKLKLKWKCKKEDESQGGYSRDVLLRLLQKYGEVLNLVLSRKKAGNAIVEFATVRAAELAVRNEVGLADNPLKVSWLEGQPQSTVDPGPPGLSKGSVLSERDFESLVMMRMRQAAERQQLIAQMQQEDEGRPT

B1: XAB2 (protein, UniProt Q9HCS7 1-855)
chain: MVVMARLSRPERPDLVFEEEDLPYEEEIMRNQFSVKCWLRYIEFKQGAPKPRLNQLYERALKLLPCSYKLWYRYLKARRAQVKHRCVTDPAYEDVNNCHERAFVFMHKMPRLWLDYCQFLMDQGRVTHTRRTFDRALRALPITQHSRIWPLYLRFLRSHPLPETAVRGYRRFLKLSPESAEEYIEYLKSSDRLDEAAQRLATVVNDERFVSKAGKSNYQLWHELCDLISQNPDKVQSLNVDAIIRGGLTRFTDQLGKLWCSLADYYIRSGHFEKARDVYEEAIRTVMTVRDFTQVFDSYAQFEESMIAAKMETASELGREEEDDVDLELRLARFEQLISRRPLLLNSVLLRQNPHHVHEWHKRVALHQGRPREIINTYTEAVQTVDPFKATGKPHTLWVAFAKFYEDNGQLDDARVILEKATKVNFKQVDDLASVWCQCGELELRHENYDEALRLLRKATALPARRAEYFDGSEPVQNRVYKSLKVWSMLADLEESLGTFQSTKAVYDRILDLRIATPQIVINYAMFLEEHKYFEESFKAYERGISLFKWPNVSDIWSTYLTKFIARYGGRKLERARDLFEQALDGCPPKYAKTLYLLYAQLEEEWGLARHAMAVYERATRAVEPAQQYDMFNIYIKRAAEIYGVTHTRGIYQKAIEVLSDEHAREMCLRFADMECKLGEIDRARAIYSFCSQICDPRTTGAFWQTWKDFEVRHGNEDTIKEMLRIRRSVQATYNTQVNFMASQMLKVSGSATGTVSDLAPGQSGMDDMKLLEQRAEQLAAEAERDQPLRAQSKILFVRSDASREELAELAQQVNPEEIQLGEDEDEDEMDLEPNEVRLEQQSVPAAVFGSLKED
B2: PLRG1 (protein, UniProt O43660 1-514)
chain: MVEEVQKHSVHTLVFRSLKRTHDMFVADNGKPVPLDEESHKRKMAIKLRNEYGPVLHMPTSKENLKEKGPQNATDSYVHKQYPANQGQEVEYFVAGTHPYPPGPGVALTADTKIQRMPSESAAQSLAVALPLQTKADANRTAPSGSEYRHPGASDRPQPTAMNSIVMETGNTKNSALMAKKAPTMPKPQWHPPWKLYRVISGHLGWVRCIAVEPGNQWFVTGSADRTIKIWDLASGKLKLSLTGHISTVRGVIVSTRSPYLFSCGEDKQVKCWDLEYNKVIRHYHGHLSAVYGLDLHPTIDVLVTCSRDSTARIWDVRTKASVHTLSGHTNAVATVRCQAAEPQIITGSHDTTIRLWDLVAGKTRVTLTNHKKSVRAVVLHPRHYTFASGSPDNIKQWKFPDGSFIQNLSGHNAIINTLTVNSDGVLVSGADNGTMHLWDWRTGYNFQRVHAAVQPGSLDSESGIFACAFDQSESRLLTAEADKTIKVYREDDTATEETHPVSWKPEIIKRKRF

The assay deals with T1, GFP-DNAJC17 fusion protein (mouse). The assay can be described thus: affinity purification with mass spectrometry; total extracts of tetracycline-induced GFP-DNAJC17 or GFP HeLa cells, GFP trap beads 2 h at 4 °C, lysis buffer 50 mM Tris pH 7.4, 150 mM NaCl, 10 mM EDTA, 2 mM MgCl2, 0.1% Triton X100, washes with 200 mM NaCl; eluates on SDS-PAGE, in-gel trypsin digestion, nanoLC-ESI-LIT-MS/MS.
For CDC5L (from UniProt Q99459 1-802), the binding result is listed as “binds”.

Regarding SNRNP200 (from UniProt O75643 1-2136), the binding result is listed as “binds”.

In the case of B1, the binding entry is “binds”.

Take B2: the binding entry is reported as “binds”.
